The whole screen tested about 300,000 compounds, of which about 3,700 (1.2%) were called active. This list was built around the results that the source calls inconclusive (neither active nor inactive); the mix of calls is not that of the screen. The call rests on the fitted dose curve; tested in HEK293 cells. Potencies beside an inconclusive call are fits to weak or partial responses and may not hold up.
Experiment: qHTS for Inhibitors of binding or entry into cells for Lassa Virus; further: nearly all actives have a fitted effect of over 50% in size
Conditions: Lassa virus pseudotype entry inhibition, cell reporter; activity change, negative = inhibition: at 37.9 µM (top of the series) unless noted
On the % scale 0 is the no-effect control and ±100 the full control effect; potency means the concentration at half of the fitted maximal effect.

Compound	activity change, negative = inhibition	Potency
CCc1ccc(C2=C(C)C(N3CCC(C(=O)NCc4ccc(C)o4)CC3)=NS2(=O)=O)cc1	inactive: 20.9% [at 46.1 µM]	–
CN(C)CCCN1c2ccccc2Sc2ccc3ccccc3c21	–	inconclusive: 35.5 µM [inhibitor, single point]
COc1ccc(OC)c(C(c2nnnn2Cc2ccccc2)N2CCN(C3CCCCC3)CC2)c1 (stereo not given)	inactive: -17%	–
O=C1N(Cc2cccnc2)C[C@@H]2C[C@@H](c3cccc(OC4CCCC4)c3)N3CCC[C@@]123	inactive: 3.25% [at 46.1 µM]	–
COc1ccc(Nc2c3c(nc4ccccc24)CCC3)cc1	–	inconclusive: 11.2 µM [inhibitor, single point]
Cc1cccc(-c2noc(-c3ccccc3C(=O)NCc3ccco3)n2)c1	inactive: -27.8%	–
Cc1cc(NC(=O)c2ccc(Cl)c(S(=O)(=O)N3CCCCC3)c2)no1	–	inconclusive: 35.5 µM [inhibitor, single point]
CCOC(=S)SCC(=O)Nc1nc(-c2ccc(Br)cc2)cs1	–	active: 8.91 µM
CSc1ccc(CCNC(=O)c2ccc3c(c2)c(C)c(C)n3Cc2ccc(F)cc2)cc1	–	inconclusive: 12.6 µM [inhibitor, partial curve, poor fit]
Clc1ccc2c(c1)N=C(N1CCNCC1)c1ccccc1N2	–	inconclusive: 0.0052 µM [inhibitor, full curve, poor fit]
Cc1cc(NC(=O)CCl)on1	inactive: -19%	–
CCn1c(-c2ccc(-c3ccccc3)cc2)c[nH]c1=S	–	inconclusive: 35.5 µM [inhibitor, partial curve, poor fit]
CCN1CCN(Cc2ccc(C)cc2C)CC1	inactive: -27.9%	–
CCOc1ccccc1C(=O)NCC(c1ccc(N(C)C)cc1)N1CCCC1 (stereo not given)	–	inconclusive: 15.8 µM [inhibitor, single point]
CCN(C(=O)CCNC(=O)Cn1cnc2ccccc2c1=O)c1ccccc1F	inactive: -10.8%	–
CCC(NC(=O)NCc1ccccc1)(C(F)(F)F)C(F)(F)F	–	inconclusive: 3.55 µM [inhibitor, partial curve, poor fit]
CCCCSc1nnc2nc(C)cc(C)n12	–	inconclusive: 23.1 µM [activator, partial curve]
COc1ccc(-n2nc(C(=O)Nc3ccc4c(c3)OCO4)c3ccccc3c2=O)cc1	–	inconclusive: 6.31 µM [inhibitor, single point]
CCN(CC)S(=O)(=O)c1ccc(C2=NOC3(C2)N(C)c2ccccc2C3(C)C)cc1 (stereo not given)	–	active: 0.731 µM
COCCn1c(C)cc(C2=NNC(=Nc3ccc(F)cc3)SC2)c1C	–	inconclusive: 0.501 µM [activator, full curve, poor fit]

2 of the compounds above, bar-delimited:
Compound | activity change, negative = inhibition | Potency
CN(C)CCCN1c2ccccc2Sc2ccc3ccccc3c21 | – | inconclusive: 35.5 µM [inhibitor, single point]
COc1ccc(OC)c(C(c2nnnn2Cc2ccccc2)N2CCN(C3CCCCC3)CC2)c1 (stereo not given) | inactive: -17% | –

Reference: PubChem BioAssay AID540256 (National Center for Advancing Translational Sciences (NCATS), 2011)
